Where cells or extracts were used, other partners may take part. For some assays here: No signal at the amounts used counts as a negative. For some assays here: The exact form of at least one protein or probe is not confirmed. For some assays here: Weaker means in comparison with the reference protein, sequence or condition of that experiment.
Columns and labels:
Experiment in all cases: pull-down
[1] = molecular target: LSD1 deltaIDR K661A (flag) (UniProt O60341); settings: not as strong as WT; pull-down: 20 mM Tris pH 7.5, 50 mM NaCl, 2 mM MgCl2, 0.1% Tween-20, 4 C; protein in a lysate after overexpression; residues 171-852; protein details: Flag; label: biotin (5' per name 52-Bio)
[2] = molecular target: LSD1 deltaIDR 3KE (flag) K355E,K357E,K359E (UniProt O60341); settings: pull-down: 20 mM Tris pH 7.5, 50 mM NaCl, 2 mM MgCl2, 0.1% Tween-20, 4 C; protein in a lysate after overexpression; residues 171-852; protein details: Flag; label: biotin (5' per name 52-Bio)
[3] = molecular target: LSD1 IDR (flag) (UniProt O60341); settings: pull-down: 20 mM Tris pH 7.5, 50 mM NaCl, 2 mM MgCl2, 0.1% Tween-20, 4 C; protein in a lysate after overexpression; residues 1-170; protein details: Flag; label: biotin (5' per name 52-Bio)
[4] = molecular target: LSD1 deltaIDR (flag) (UniProt O60341); settings: slightly less than full length; pull-down: 20 mM Tris pH 7.5, 50 mM NaCl, 2 mM MgCl2, 0.1% Tween-20, 4 C; protein in a lysate after overexpression; residues 171-852; protein details: Flag; label: biotin (5' per name 52-Bio)
[5] = molecular target: LSD1 full length (flag) (UniProt O60341); settings: pull-down: 20 mM Tris pH 7.5, 50 mM NaCl, 2 mM MgCl2, 0.1% Tween-20, 4 C; protein in a lysate after overexpression; residues 1-852; protein details: Flag; label: biotin (5' per name 52-Bio)

Sequence: UUAGGGUUAGGGUUAGGGUUAGGGUUAGGGUUAGGGUUAGGGUUAGGG [biotin-TERRA (UUAGGG)8]
- binding result [1]: binds more weakly
- binding result [2]: no binding
- binding result [3]: no binding
- binding result [4]: binds more weakly
- binding result [5]: binds

Reference: article PMC10925046
